PubChem BioAssay AID1224828 | NIAID – 2016
Here is an unselected part of about 17,000 reagents tested. Over the whole deposit, 762 (4.5%) are marked active. 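Active calls include both raised and lowered p65 entry, mostly lowered; wells with fewer than 50 cells lack a z-score.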 Raw values are not corrected between plates. Entries without a mark were called inactive. The numbers tell different reagents against one gene apart.

Test: 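Regulators linking TLR4 signalling to p65 nuclear translocation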 (primary screen)
System: mouse RAW264.7 G9 macrophage reporter cells (GFP-p65, Tnf promoter-mCherry)
Reagents: siRNA pool against mouse genes, 100 nM
Duration: 2 days siRNA transfection, then 40 min LPS before fixation
Challenge: LPS (Salmonella minnesota R595) at 10 ng/ml
Detection: 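Microscopy ratio of nuclear to perinuclear-ring GFP-p65 signal, scaled to the plate median; gene score is the average of two replicate robust z-scores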
Scale: p65 translocation robust z-score: higher = more nuclear NF-kappaB p65 after LPS than the plate median; nuclear/cytoplasmic p65 ratio: higher = more nuclear NF-kappaB p65
Rule for the call: 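Called active when z exceeds 3.3 or falls under -1.56 (median of Tlr4 controls), giving activity score of at least 50; no calls for control wells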
Calls: active = hit (p65 shift raised or lowered); inactive = no clear change

target gene | reagent | p65 translocation robust z-score | nuclear/cytoplasmic p65 ratio, rep 1 | nuclear/cytoplasmic p65 ratio, rep 2 | low cell count flag
Uhrf2 | 1 | -0.23 | 1.49 | 1.46 | enough cells to score
Cckar | 1 | -0.1 | 1.52 | 1.3 | enough cells to score
Vps4b | 1 | -0.56 | 1.34 | 1.15 | enough cells to score
Cnr2 | 1 | -0.69 | 1.41 | 1.37 | enough cells to score
D17H6S56E-5 | 1 | 0.92 | 1.68 | 1.6 | enough cells to score
Slc23a2 | 1 | 2.01 | 1.62 | 1.53 | enough cells to score
A830054O04Rik | 1 | -1.73 (active) | 1.21 | 1.23 | enough cells to score
Stip1 | 1 | -1.35 | 1.34 | 1.36 | enough cells to score
Gpr150 | 1 | -0.86 | 1.38 | 1.52 | enough cells to score
Ube2d2a | 1 | -0.38 | 1.48 | 1.43 | enough cells to score
Rgs13 | 1 | – | 1.36 | 1.25 | fewer than 50 cells per well; well left out of scoring
Esrp1 | 1 | 0.48 | 1.67 | 1.37 | enough cells to score
Cdc42ep1 | 1 | -0.72 | 1.4 | 1.29 | enough cells to score
Crybb1 | 1 | -0.42 | 1.51 | 1.31 | enough cells to score
Pcdhgc5 | 1 | -1.11 | 1.29 | 1.11 | enough cells to score
Slc26a6 | 1 | – | 1.2 | 1.29 | fewer than 50 cells per well; well left out of scoring
Csad | 1 | -1.54 | 1.28 | 1.17 | enough cells to score
Ovch2 | 1 | – | 1.55 | 1.31 | fewer than 50 cells per well; well left out of scoring
Cfap20dc | 1 | – | 1.43 | 1.63 | fewer than 50 cells per well; well left out of scoring
Cpsf4l | 1 | 0.02 | 1.6 | 1.77 | enough cells to score
Rchy1 | 1 | -0.22 | 1.36 | 1.22 | enough cells to score
Rarg | 1 | 0.33 | 1.58 | 1.53 | enough cells to score
Clca4a | 1 | 1.2 | 1.67 | 1.63 | enough cells to score
Plp2 | 1 | -1.11 | 1.27 | 1.06 | enough cells to score
Tmprss11g | 1 | -1.5 | 1.24 | 1.32 | enough cells to score
Oscp1 | 1 | -0.76 | 1.39 | 1.22 | enough cells to score
Fkbp7 | 1 | -1.99 (active) | 1.21 | 1.27 | enough cells to score
Stx3 | 1 | 0.5 | 1.48 | 1.3 | enough cells to score
Fbxl15 | 1 | -0.74 | 1.52 | 1.33 | enough cells to score
Ap3m2 | 1 | 0.53 | 1.43 | 1.83 | enough cells to score
Cdk14 | 1 | -1.08 | 1.54 | 1.22 | enough cells to score
Plin4 | 1 | – | 1.29 | 1.17 | fewer than 50 cells per well; well left out of scoring
Cntnap2 | 1 | 1.06 | 1.62 | 1.51 | enough cells to score
Atp10d | 1 | 1.71 | 1.66 | 1.95 | enough cells to score
Homez | 1 | -2.02 (active) | 1.19 | 1.39 | enough cells to score
Ros1 | 1 | 0.69 | 1.96 | 1.33 | enough cells to score
Gp1bb | 1 | 0.59 | 1.52 | 1.45 | enough cells to score
Grwd1 | 1 | -0.22 | 1.53 | 1.59 | enough cells to score
Endou | 1 | -0.36 | 1.49 | 1.32 | enough cells to score
Or5b113 | 1 | 0.38 | 1.7 | 1.44 | enough cells to score
Dmd | 1 | 0.9 | 1.73 | 1.38 | enough cells to score
D1Pas1 | 1 | 0.56 | 1.55 | 1.73 | enough cells to score
Slit1 | 1 | -1.14 | 1.36 | 1.35 | enough cells to score
Krtap15-1 | 1 | 1.74 | 1.63 | 1.82 | enough cells to score
Glod5 | 1 | – | 1.31 | 1.37 | fewer than 50 cells per well; well left out of scoring
Wnt5b | 1 | 0.97 | 1.72 | 1.57 | enough cells to score
Rhot2 | 1 | – | 1.41 | 1.12 | fewer than 50 cells per well; well left out of scoring
Pex7 | 1 | 1.2 | 1.63 | 1.55 | enough cells to score
Decr2 | 1 | 0.15 | 1.53 | 1.37 | enough cells to score
Tfrc | 1 | 0.76 | 1.56 | 1.69 | enough cells to score
Nlrc4 | 1 | -0.41 | 1.59 | 1.52 | enough cells to score
Naa35 | 1 | 1.59 | 2.03 | 1.72 | enough cells to score
Stoml3 | 1 | -0.82 | 1.34 | 1.11 | enough cells to score
Actl9 | 1 | – | 1.47 | 1.28 | fewer than 50 cells per well; well left out of scoring
Ptprr | 1 | 0.49 | 1.81 | 1.44 | enough cells to score
Bdh1 | 1 | 0.66 | 1.76 | 1.67 | enough cells to score
Lysmd1 | 1 | 1.46 | 1.52 | 1.66 | enough cells to score
Pcyox1 | 1 | -0.23 | 1.37 | 1.25 | enough cells to score
Slurp1 | 1 | – | 1.23 | 1.17 | fewer than 50 cells per well; well left out of scoring
Emc7 | 1 | – | 1.52 | 1.44 | fewer than 50 cells per well; well left out of scoring
Ca5a | 1 | -1.95 (active) | 1.33 | 1.43 | enough cells to score
Slc25a37 | 1 | -0.41 | 1.71 | 1.54 | enough cells to score
Pcp2 | 1 | 1.13 | 1.59 | 1.29 | enough cells to score
Chi3l1 | 1 | -0.1 | 1.55 | 1.8 | enough cells to score
Cimip2c | 1 | 1.73 | 1.54 | 1.64 | enough cells to score
Tas2r106 | 1 | – | 1.05 | 1.11 | fewer than 50 cells per well; well left out of scoring
Atg2b | 1 | 1.72 | 1.73 | 1.59 | enough cells to score
Atg2b | 2 | -0.12 | 1.57 | 1.77 | enough cells to score
Uxs1 | 1 | -0.75 | 1.27 | 1.16 | enough cells to score
Or2at4 | 1 | – | 1.36 | 1.17 | fewer than 50 cells per well; well left out of scoring
Ahsp | 1 | 2.69 | 1.97 | 1.85 | enough cells to score
Dmgdh | 1 | -1.1 | 1.28 | 1.28 | enough cells to score
Dennd11 | 1 | -1.11 | 1.32 | 1.22 | enough cells to score
Ppcs | 1 | -0.41 | 1.26 | 1.46 | enough cells to score
Zfp639 | 1 | – | 1.33 | 1.65 | fewer than 50 cells per well; well left out of scoring

12 entries from above, reformatted:
Ube2d2a
- p65 translocation robust z-score: -0.38
- nuclear/cytoplasmic p65 ratio, rep 1: 1.48
- nuclear/cytoplasmic p65 ratio, rep 2: 1.43
- low cell count flag: enough cells to score

Rgs13
- nuclear/cytoplasmic p65 ratio, rep 1: 1.36
- nuclear/cytoplasmic p65 ratio, rep 2: 1.25
- low cell count flag: fewer than 50 cells per well; well left out of scoring

Esrp1
- p65 translocation robust z-score: 0.48
- nuclear/cytoplasmic p65 ratio, rep 1: 1.67
- nuclear/cytoplasmic p65 ratio, rep 2: 1.37
- low cell count flag: enough cells to score

Cdc42ep1
- p65 translocation robust z-score: -0.72
- nuclear/cytoplasmic p65 ratio, rep 1: 1.4
- nuclear/cytoplasmic p65 ratio, rep 2: 1.29
- low cell count flag: enough cells to score

Crybb1
- p65 translocation robust z-score: -0.42
- nuclear/cytoplasmic p65 ratio, rep 1: 1.51
- nuclear/cytoplasmic p65 ratio, rep 2: 1.31
- low cell count flag: enough cells to score

Pcdhgc5
- p65 translocation robust z-score: -1.11
- nuclear/cytoplasmic p65 ratio, rep 1: 1.29
- nuclear/cytoplasmic p65 ratio, rep 2: 1.11
- low cell count flag: enough cells to score

Slc26a6
- nuclear/cytoplasmic p65 ratio, rep 1: 1.2
- nuclear/cytoplasmic p65 ratio, rep 2: 1.29
- low cell count flag: fewer than 50 cells per well; well left out of scoring

Csad
- p65 translocation robust z-score: -1.54
- nuclear/cytoplasmic p65 ratio, rep 1: 1.28
- nuclear/cytoplasmic p65 ratio, rep 2: 1.17
- low cell count flag: enough cells to score

Ovch2
- nuclear/cytoplasmic p65 ratio, rep 1: 1.55
- nuclear/cytoplasmic p65 ratio, rep 2: 1.31
- low cell count flag: fewer than 50 cells per well; well left out of scoring

Cfap20dc
- nuclear/cytoplasmic p65 ratio, rep 1: 1.43
- nuclear/cytoplasmic p65 ratio, rep 2: 1.63
- low cell count flag: fewer than 50 cells per well; well left out of scoring

Cpsf4l
- p65 translocation robust z-score: 0.02
- nuclear/cytoplasmic p65 ratio, rep 1: 1.6
- nuclear/cytoplasmic p65 ratio, rep 2: 1.77
- low cell count flag: enough cells to score

Rchy1
- p65 translocation robust z-score: -0.22
- nuclear/cytoplasmic p65 ratio, rep 1: 1.36
- nuclear/cytoplasmic p65 ratio, rep 2: 1.22
- low cell count flag: enough cells to score
